Measured values taken from US7563771B2, “Synthetic single domain polypeptides mimicking apolipoprotein E” (UAB Research Foundation, priority 2002, dated 2009).
Not every detail of the peptide structures is certain; ends, links or a residue may be inferred. Peptide text beside a SMILES is read from it.

Columns and labels:
CHO cells = assay: Uptake of human 125I-LDL in CHO cells (FIG. 9); format: cell-based, Chinese hamster
plasma cholesterol = assay: Plasma cholesterol after intravenous injection into fasted apo E null mice; format: in vivo
Description: The peptides were dissolved in PBS pH=5.0. Control mice (n=5) received PBS pH=5.0. Data shown represent mean±SEM.
Effects on cholesterol levels of peptide Ac-(R)14L-NH2 analog 2 (at 100 μg/mouse), administered intravenously into fasted apo E null mice as free peptide or as peptide:DMPC complexes at two pH levels. n=5 in all cases is shown in FIG. 11. Peptides were dissolved in PBS at the pH shown. Data shown represent mean±SEM.
Blood samples were taken immediately before injection and at 2 minutes and at 5 hours after injection and measured for cholesterol. A control of only PBS was also measured. Total cholesterol in the blood samples was measured, and is expressed in FIG. 4 as mean±SEM. […] However, the reduction in plasma cholesterol was in the lipoproteins, including HDL. […] Feces were collected for 24 hours following injection of 100 μg of Ac-(R)18L-NH2:DMPC complexes (n=2) or PBS (n=5). Fecal sterols were extracted, and total cholesterol was determined manually (Sigma Infinity). […] Total feces were collected from individually-caged mice for 24 hours following intravenous injection of Ac-(R)18L-NH2 into apo E null mice at a dose of 100 μg/mouse. Total 24-hour fecal cholesterol was then calculated. […] The dried extract was resuspended in isopropanol, and cholesterol was measured manually. […]
This experiment is carried out to show the usefulness of the peptides of the invention in vivo for lowering serum cholesterol. […] The samples were analyzed by the column lipoprotein profile as previously described (Garber, D. et al. J. Lipid Res. 2000, 41:1020-1026). Briefly, 5 to 10 μl of the plasma was analyzed using a single superose (Pharmacia, Piscataway, N.J.) column. […] Cholesterol content of the reaction mixture is determined at 500 nm spectrophotometrically and the data points are collected into a computer. The resulting profiles are decomposed into component peaks and analyzed for relative area using PeakFit® computer software (SPSS Science, Chicago, Ill.). Absolute cholesterol value for total cholesterol is determined by comparisons with control samples of known values. […]

## CC[C@H](C)[C@H](NC(=O)[C@H](Cc1ccccc1)NC(=O)[C@H](CCCNC(=N)N)NC(=O)[C@H](Cc1c[nH]c2ccccc12)NC(=O)[C@@H](NC(=O)[C@H](CO)NC(=O)CNC(=O)[C@H](Cc1ccc(O)cc1)NC(=O)[C@H](Cc1ccccc1)NC(=O)[C@H](CCCNC(=N)N)NC(=O)[C@H](CCCNC(=N)N)NC(C)=O)[C@@H](C)CC)C(=O)N[C@@H](CCCNC(=N)N)C(=O)N[C@@H](C)C(=O)N[C@@H](Cc1ccccc1)C(N)=O [Ac-(R)14L-NH2 analog 2] (Ac-RRFYGSIWRFIRAF-NH2)
CHO cells
  uptake of LDL in vitro: enhanced the uptake of LDL
Plasma cholesterol; free peptide at pH=7.4, 100 μg/mouse, i.v., fasting apo E null mice (FIG. 11)
  reduction of plasma cholesterol: to a greater extent than did injection of peptide:DMPC complexes
Plasma cholesterol; mouse, in vivo
  atherogenic lipoprotein uptake and degradation in apo E null mice: able to enhance atherogenic lipoprotein uptake and degradation
  decreasing plasma cholesterol in Apo E null mice: effective in decreasing plasma cholesterol
